Data reported in publication PMC11327391.
No constants are given. Whether binding was seen depends on the method and setting. In cells and extracts the contact can be indirect. Some entries that bind do so weakly or less than the wild type. For part of these data: Tags and fused reporters may be left off the sequences shown.

Protein sequences, listed by entry. Tags and fused reporters are not part of them.
UniProt P28741: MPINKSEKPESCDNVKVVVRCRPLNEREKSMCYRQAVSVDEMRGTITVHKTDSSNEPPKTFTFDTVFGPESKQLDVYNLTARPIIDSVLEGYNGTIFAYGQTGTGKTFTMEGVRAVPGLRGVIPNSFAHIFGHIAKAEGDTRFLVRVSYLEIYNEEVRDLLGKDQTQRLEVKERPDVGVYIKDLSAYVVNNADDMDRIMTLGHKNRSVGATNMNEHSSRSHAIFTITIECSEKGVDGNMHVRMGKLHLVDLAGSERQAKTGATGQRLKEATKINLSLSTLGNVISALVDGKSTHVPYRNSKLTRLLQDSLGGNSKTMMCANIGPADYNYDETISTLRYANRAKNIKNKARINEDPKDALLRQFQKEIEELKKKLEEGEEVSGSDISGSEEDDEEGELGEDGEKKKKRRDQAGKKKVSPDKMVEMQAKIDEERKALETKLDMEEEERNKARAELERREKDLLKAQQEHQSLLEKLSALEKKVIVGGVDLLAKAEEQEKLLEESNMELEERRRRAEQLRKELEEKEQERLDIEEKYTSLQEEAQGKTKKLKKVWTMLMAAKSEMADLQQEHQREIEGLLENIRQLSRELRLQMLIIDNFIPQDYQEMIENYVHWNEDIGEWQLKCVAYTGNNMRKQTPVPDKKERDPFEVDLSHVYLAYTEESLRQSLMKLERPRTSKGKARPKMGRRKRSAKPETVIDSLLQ

Key:
Experiment in all cases: co-IP; Flag-Ccdc178 and a Myc-tagged partner co-transfected into HEK 293T cells; cell lysates immunoprecipitated with anti-FLAG or anti-MYC antibody
[1] = target: T1, CFAP53 (mouse) (UniProt Q9D439)
T1 sequence: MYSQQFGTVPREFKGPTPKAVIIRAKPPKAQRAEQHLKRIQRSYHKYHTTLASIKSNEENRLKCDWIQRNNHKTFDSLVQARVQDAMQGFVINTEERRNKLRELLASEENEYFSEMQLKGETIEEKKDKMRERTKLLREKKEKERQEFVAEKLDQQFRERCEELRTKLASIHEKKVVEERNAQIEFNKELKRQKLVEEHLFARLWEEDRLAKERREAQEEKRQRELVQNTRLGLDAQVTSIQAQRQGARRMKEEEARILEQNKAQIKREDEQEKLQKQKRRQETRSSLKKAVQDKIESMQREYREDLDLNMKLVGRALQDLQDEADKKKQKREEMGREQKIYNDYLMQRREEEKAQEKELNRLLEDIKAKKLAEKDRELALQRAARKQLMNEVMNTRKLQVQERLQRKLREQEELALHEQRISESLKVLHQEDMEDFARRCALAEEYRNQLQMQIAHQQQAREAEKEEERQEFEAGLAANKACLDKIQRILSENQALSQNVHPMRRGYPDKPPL

[2] = target: T2, intra-flagellar transport 88 (IFT88) (mouse) (UniProt Q61371)
T2 sequence: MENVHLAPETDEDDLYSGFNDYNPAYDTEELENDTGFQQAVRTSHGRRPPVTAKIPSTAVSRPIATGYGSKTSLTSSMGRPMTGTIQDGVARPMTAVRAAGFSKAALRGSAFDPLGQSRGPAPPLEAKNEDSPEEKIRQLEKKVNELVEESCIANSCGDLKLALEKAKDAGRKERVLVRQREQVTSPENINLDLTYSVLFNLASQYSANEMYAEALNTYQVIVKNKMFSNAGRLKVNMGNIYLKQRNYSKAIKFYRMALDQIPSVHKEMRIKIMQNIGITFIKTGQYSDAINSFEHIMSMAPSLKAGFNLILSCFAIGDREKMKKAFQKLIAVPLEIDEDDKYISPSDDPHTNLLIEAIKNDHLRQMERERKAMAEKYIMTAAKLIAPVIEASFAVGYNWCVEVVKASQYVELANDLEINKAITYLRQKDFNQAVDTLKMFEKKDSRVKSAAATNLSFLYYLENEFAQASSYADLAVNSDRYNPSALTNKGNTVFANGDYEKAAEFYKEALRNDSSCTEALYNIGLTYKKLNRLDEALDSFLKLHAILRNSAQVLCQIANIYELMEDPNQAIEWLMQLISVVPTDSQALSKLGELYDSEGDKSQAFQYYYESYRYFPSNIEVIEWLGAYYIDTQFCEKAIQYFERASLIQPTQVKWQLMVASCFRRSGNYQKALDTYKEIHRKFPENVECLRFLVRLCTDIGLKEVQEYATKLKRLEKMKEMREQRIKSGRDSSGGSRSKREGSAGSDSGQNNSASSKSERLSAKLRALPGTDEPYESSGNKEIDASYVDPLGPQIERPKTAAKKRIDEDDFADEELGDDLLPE

[3] = target: kinesin family member 3A (KIF3A) (mouse) (UniProt P28741)

- binding [1]: binds
- binding [2]: binds
- binding [3]: binds
B1: CCDC178 (protein, UniProt Q8CDV0 1-866)
chain: MPENEKEPAQPTTNEDALDTGKTCLQIKELKDKERALMLAENARMQGLSEFFFSRHEDKRLYESKSTNTEDVNKAIYFSYPSRRHSCTLVNIPKPCVNKMISHIEDVESKIQEHLTQFEASFEEWTSVTKDKEAGLDVSAPEKQVHPEKGKDEKCPELKKRMETLLSEAIHLIKSLETDRAEAEQALKQHKSRKKKISMKIDSWSIWKLQELPLAVQKEHENFSKINAELRSYLEDIALKVEQLQERKEKLEKANAKLQVDIDYMASHSVLLEKKRKQELGCLKERYHKKFEVMEKFRAIHEELKESVDKCEGAKARLKNMKVENEREIQEELINATSYEKELDKLSVLDAHYTTSIETVNLDIEGDEEAMNEVLRETQSTTNELENLKKTVDDLKRLFDQYCWRQRKYENEYLEAFSNFYSLKKTWDIELSNVSKDAKDLTIVYEAQSEENKRIQSEIQSITDDIEESIKKTAEMEEEVHTFVEMKMKNNNYLKQLYKQAYQVGAVYHLSRHKTEELEDKLADLKRIFKGREELLKKLTRGDIATGIEIQKRLYAIEETQFIEMQEFIRRQVLYNMALLEVEEQLKELEAEAVRIRYLHRQHSKMLHNIRKRKERVKKNVDATKKKLLKKSKKSRMELTRTEGKRSIIHEEIEIARGQTVALHEKCIELSKEIRIMNLERTNYEERLKKLQEEFFKLQFDREHVHGVYDHLMREKQYCEERIFEEERRFRRLIDMRKNTLKNIRKCQDDLLEENLRLAKEYQSAQLIFLKEKESYFNGYDRLLSLNFSLSDKKKLCQLQKRLDQKWQEYFRLMILFNKTKLAKFQGDSQNSIQKILAVQEESSSLMQHILDFFKSFPNSSCGEDD
